Results are given in words; binding and its absence hold for the method and conditions named. Binding seen in cells or lysates may run through a third protein. Some entries that bind do so weakly or less than the wild type. Where a sequence is shown, tags or fusion partners need not be part of it.

One molecule from article PMC7504044 can be followed below.

Test [1] addresses T1, GFP–TM–Eme (transmembrane domain of emerin fused to GFP) (human) (UniProt P50402).
T1 sequence: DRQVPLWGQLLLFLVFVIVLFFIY
As to the kind of experiment: co-IP; GFP-Trap beads on lysates of C2C12 cells transfected with GFP fusions; western blot for endogenous emerin or β-DG. Background: A western blot detects proteins with antibodies after separation by electrophoresis.

Test [2] has as its target T2, HA-tagged emerin mutant ΔVal236–Phe241 (human) (UniProt P50402).
T2 sequence: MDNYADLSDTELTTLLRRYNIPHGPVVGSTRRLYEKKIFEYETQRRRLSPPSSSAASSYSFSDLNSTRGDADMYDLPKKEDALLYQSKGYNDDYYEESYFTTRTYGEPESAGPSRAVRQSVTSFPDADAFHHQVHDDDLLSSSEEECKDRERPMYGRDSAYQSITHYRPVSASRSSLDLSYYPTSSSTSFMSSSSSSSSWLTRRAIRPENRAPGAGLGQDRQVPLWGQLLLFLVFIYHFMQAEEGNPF
In words: co-IP; anti-HA antibodies and protein G-agarose on whole cell extracts (1 mg) of C2C12 cells transfected with HA-tagged emerin constructs, 4 °C, washes with RIPA buffer (300-mM NaCl); western blot for endogenous β-DG.

B1: endogenous β-DG of C2C12 myoblasts (protein, UniProt Q62165 652-893)
chain: SIVVEWTNNTLPLEPCPKEQIIGLSRRIADENGKPRPAFSNALEPDFKALSIAVTGSGSCRHLQFIPVAPPSPGSSAAPATEVPDRDPEKSSEDDVYLHTVIPAVVVAAILLIAGIIAMICYRKKRKGKLTLEDQATFIKKGVPIIFADELDDSKPPPSSSMPLILQEEKAPLPPPEYPNQSMPETTPLNQDTVGEYTPLRDEDPNAPPYQPPPPFTAPMEGKGSRPKNMTPYRSPPPYVPP
For B1, the binding result in test [1] is recorded as “no binding”; in test [2], “binds”.
